57 compounds from PubChem BioAssay AID2685 (National Center for Advancing Translational Sciences (NCATS), 2010) can be followed below.

This is one part of the list. The main result of the screen is listed elsewhere. These columns were measured beside it and carry no call. Compounds called inactive in the main read-out are mostly missing here. The note in brackets gives the kind of curve behind each potency; many fits are weak.

This assay can be described thus: qHTS Assay for Lipid Storage Modulators in Drosophila S3 Cells.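 As to cell number change: cells counted by Cell Tracker Red CMTPX staining in the red channel.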 The settings on record: BODIPY lipid droplet fluorescence, 18-24 h; for cell number change: measured here: cell count max response, cells fed with added oleic acid. In short, it runs like this:
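Drosophila S3 cells loaded with oleic acid (400 uM, as added) and compounds at several concentrations; lipid droplets imaged by 488-nm laser-scanning cytometry, 500–530 nm intensity and object ratio to cell channel. Percent activity normalized to 20 uM Triacsin C.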

[1] abbreviates: measured here: lipid fluorescence (Fed channel) AC50, cells fed with added oleic acid.
The mark [2] stands for this setting: measured here: cell number channel AC50, cells fed with added oleic acid.

With `N#CCCN(C(=O)COC(=O)CCN=C1NS(=O)(=O)c2ccccc21)c1ccc(F)cc1`, the cell number change is -19.6%. Also, the concentration at half-maximal activity (AC50) under setting [1] is 0.461 µM [falling, full curve].

As to `CCOc1ccc(/C=N/N2CCN(Cc3ccccc3)CC2)cc1`, the cell number change is -26%.

Turning to `CSc1nc(-c2ccccc2)nc2c1COC(C)(C)C2`, the cell number change is -33.3%. Besides, the AC50 under setting [2] was 8.2 µM [falling, partial curve]. Besides, under setting [1], the AC50 is 20.6 µM [falling, single point].

With `Cc1ccc(S(=O)(=O)N(C)C)cc1N`, the cell number change is 7.98%. The half-maximal activity concentration (AC50) under setting [2] is 0.731 µM [rising, single point].

For `CCOCCn1c(=NC(=O)c2cc3ccccc3oc2=O)sc2cc(S(N)(=O)=O)ccc21`, the cell number change was determined as 15.7%. Further, the AC50 under setting [2] is 1.64 µM [rising, partial curve, poor fit]. Under setting [1], the AC50 was 0.0291 µM [rising, full curve, poor fit].

As to `O=C(NCc1ccco1)c1ccc2c(=O)n(Cc3ccco3)c(SCC(=O)N3CCCC3)nc2c1`, the cell number change was -48.3%. Besides, the AC50 under setting [2] was 29.1 µM [falling, single point]. Besides, the AC50 under setting [1] is 2.91 µM [rising, full curve].

Consider `O=C1CSC(c2ccccn2)N1c1ccc(Br)cc1` (stereo not drawn), for which the cell number change was determined as 9.34%. Besides, the AC50 under setting [1] is 0.164 µM [rising, full curve, poor fit].

Turning to `CCC(=O)N1CCN=C1SCc1ccccc1`, the cell number change is 0.0752%. Also, under setting [2], the AC50 was 6.51 µM [rising, single point]. For the same compound, the AC50 under setting [1] is 6.51 µM [rising, single point].

Regarding `Cc1[nH]c2ccccc2c1C(=O)CSC(=S)N1CCOCC1`, the AC50 by setting is: under setting [2], 0.0206 µM [rising, full curve, poor fit]; under setting [1], 0.00517 µM [rising, full curve, poor fit].

For the compound `Cc1cc(=O)[nH]c(SCCOc2cccc(C(F)(F)F)c2)n1`, the cell number change is -32.1%. The concentration at half-maximal activity (AC50) under setting [2] is 25.9 µM [falling, single point]. Besides, the AC50 under setting [1] was 0.00461 µM [falling, full curve, poor fit].

For `CC(=O)c1cccc(NC(=S)NC(=O)C(C)C)c1`, the cell number change was -3.16%. Also, the AC50 under setting [2] is 0.651 µM [rising, single point].

`O=C(Nc1ccc(Br)cc1)c1cccc(NC(=O)C2C3CC4OC(=O)C2C4C3)c1` (stereo not drawn): under setting [2], the AC50 is 0.461 µM [falling, single point].

On to `Cc1nn(-c2ccccc2)c(N)c1Sc1ccc([N+](=O)[O-])cc1`, for which the cell number change is -21.6%. The concentration at half-maximal activity (AC50) under setting [1] was 2.31 µM [falling, partial curve, poor fit].

On to `Cc1noc(NS(=O)(=O)c2ccc(NC(=O)CSc3nc4c(cc3C#N)CCCCC4)cc2)c1C`, for which the cell number change amounted to 32.6%. The AC50 under setting [2] was 0.231 µM [rising, full curve, poor fit].

Regarding `COCCSc1nnc(NC(=O)C2CCCCC2)s1`, the cell number change was determined as 23.7%. In addition, the half-maximal activity concentration (AC50) under setting [2] was 0.259 µM [rising, full curve, poor fit].

Turning to `COc1cc(C)c(Cl)cc1S(=O)(=O)N1CCCC1`, the half-maximal activity concentration (AC50) is 3.66 µM [falling, single point] under setting [2] and 2.59 µM [falling, partial curve] under setting [1].

As to `CC1N(C)c2cc(NC(=O)c3cccs3)c(P(=O)(Nc3ccc([N+](=O)[O-])cc3)N3CCOCC3)cc2C1(C)C` (stereo not drawn), under setting [1], the half-maximal activity concentration (AC50) is 29.1 µM [rising, single point].

As for `CCN(CC(=O)Nc1c(F)cccc1F)C(=O)CCNS(=O)(=O)c1ccccc1C(F)(F)F`, the cell number change stood at 15.3%. Further, under setting [2], the half-maximal activity concentration (AC50) was 0.082 µM [falling, full curve, poor fit]. Moreover, under setting [1], the AC50 was 1.46 µM [rising, partial curve].

In the case of `CCCCN(C)C(=O)c1sc2ncn(CC)c(=O)c2c1C`, the cell number change was -40.6%. The AC50 under setting [2] was 32.6 µM [falling, single point].

`CC(=O)Nc1ccc(N2C(=O)CSC2c2ccc(F)cc2)cc1` (stereo not drawn): the cell number change worked out at 4.26%.

In the case of `Cn1c(SCCN2CCCCC2)nnc1-c1ccccc1Br`, the cell number change is -66.8%. Besides, the AC50 under setting [2] was 20.6 µM [falling, partial curve]. Also, the half-maximal activity concentration (AC50) under setting [1] is 20.6 µM [falling, single point].

With `COc1ccc(C2C(C#N)=C(N)Oc3cccc(O)c32)cc1` (stereo not drawn), the cell number change is -3.23%. Also, the concentration at half-maximal activity (AC50) under setting [1] was 29.1 µM [rising, single point].

Regarding `CCOC(=O)c1cc2sccc2n1CC(=O)N1CCCC1`, the cell number change was 36.8%. Moreover, under setting [2], the concentration at half-maximal activity (AC50) is 16.4 µM [rising, partial curve]. For the same compound, the AC50 under setting [1] is 4.11 µM [rising, single point].

In the case of `COc1ccc(C2Oc3ccccc3N2C(C)=O)cc1` (stereo not drawn), the cell number change stood at 61.1%. In addition, under setting [2], the half-maximal activity concentration (AC50) is 18.4 µM [rising, single point]. Further, under setting [1], the AC50 was 20.6 µM [rising, single point].

As for `COCCNC(=S)N/N=C(\C)c1ccc(Cl)c(Cl)c1Cl`, the cell number change came to 18.3%. The half-maximal activity concentration (AC50) under setting [2] is 0.00461 µM [rising, full curve, poor fit].

For the compound `c1coc(-c2nnc3n2C2(CCCC2)Cc2ccccc2-3)c1`, under setting [2], the AC50 was 1.64 µM [rising, partial curve].

For `CCCC(=O)Nc1ccccc1-c1nnc(SCC)[nH]c1=O`, the cell number change is -23.4%. For the same compound, the half-maximal activity concentration (AC50) under setting [1] is 29.1 µM [falling, single point].

With `c1ccc(-c2csc3ncn4nnnc4c23)cc1`, the half-maximal activity concentration (AC50) is, setting by setting: under setting [2], 0.92 µM [rising, partial curve]; under setting [1], 1.03 µM [rising, partial curve].

Turning to `COc1cc(/C=C2/SC(=S)N(CCC(=O)Nc3ccc(C(=O)O)cc3)C2=O)cc(OC)c1OC`, the cell number change stood at 18.4%. The AC50 under setting [1] is 29.1 µM [rising, single point].

Regarding `COc1cccc(OC)c1C(=O)NC(=S)Nc1ccc(N2CCOCC2)c(Cl)c1`, the cell number change was determined as 22%.

On to `CCOc1ccc(OCc2ccc(C(=O)Nc3cccc(C)n3)o2)cc1`, for which the concentration at half-maximal activity (AC50) under setting [1] was 0.58 µM [falling, full curve, poor fit].

Consider `CC(C)N1CCc2c(sc(NC(=O)c3ccc(S(=O)(=O)N4CCCCC4C)cc3)c2C(N)=O)C1` (stereo not drawn), for which the cell number change is -59.5%. Under setting [2], the half-maximal activity concentration (AC50) is 1.84 µM [falling, partial curve]. In addition, under setting [1], the half-maximal activity concentration (AC50) was 1.46 µM [falling, full curve].

As to `Cc1c(C(=O)N2CCOCC2)sc2ncnc(N3CCc4ccccc4C3)c12`, the cell number change was -16.6%. Besides, the AC50 under setting [1] was 16.4 µM [rising, single point].

As for `COC(=O)C(C)Sc1nnc(Cc2cc(=O)[nH]c(=O)[nH]2)n1-c1ccc(Cl)cc1` (stereo not drawn), the cell number change stood at 53.4%. Also, the AC50 under setting [2] is 23.1 µM [rising, partial curve, poor fit].

With `CCSc1nc2n(n1)C(c1cccc(F)c1)C1=C(CCCC1=O)N2` (stereo not drawn), the cell number change was -1.96%. Under setting [1], the half-maximal activity concentration (AC50) was 7.31 µM [falling, single point].

Regarding `Cc1ccc(O)c(NC(=O)CCC2CCCCC2)c1`, the cell number change was -33.1%.

As for `Clc1nc(NCc2ccco2)nc(N2CCCCC2)n1`, the cell number change was determined as 40.7%. For the same compound, the AC50 under setting [2] is 8.2 µM [rising, partial curve, poor fit].

Take `Brc1ccc(N=NNc2ccccc2)cc1`: the cell number change was -59%. The AC50 under setting [2] was 25.9 µM [falling, partial curve]. The AC50 under setting [1] is 16.4 µM [falling, partial curve].

For `COc1ccc(N(C(=O)c2ccco2)C(C(=O)NC2CCCC2)c2ccc(OC)c(OC)c2)cc1` (stereo not drawn), the cell number change turned out to be 14.3%. In addition, under setting [1], the AC50 was 29.1 µM [rising, single point].

`COc1ccc(NS(=O)(=O)c2ccc3oc(SCc4ccc(F)cc4)nc3c2)cc1`: the cell number change was 4.75%. Moreover, under setting [1], the AC50 was 0.411 µM [rising, full curve, poor fit].

As to `CCn1c(/C=N/n2cnnc2)nc2ccccc21`, the cell number change was determined as 29.9%. Further, the half-maximal activity concentration (AC50) under setting [1] is 0.651 µM [falling, full curve, poor fit].

For the compound `CCC(=O)N1CC2(c3ccccc3)CN(C(=O)CC)CC(c3ccccc3)(C1)C2=O`, the cell number change was -31.5%. The concentration at half-maximal activity (AC50) under setting [2] was 35.5 µM [falling, single point]. For the same compound, under setting [1], the AC50 was 35.5 µM [falling, single point].

As for `CC(C)c1ccc(NC2CCCN(C(=O)CCc3cn[nH]c3)C2)cc1` (stereo not drawn), the cell number change came to 22.3%. For the same compound, under setting [2], the half-maximal activity concentration (AC50) is 0.82 µM [rising, full curve, poor fit].

Take `COc1nc(-c2ccccc2)c2cc(C)ccc2n1`: the cell number change was determined as 12.4%. For the same compound, the AC50 under setting [1] is 7.31 µM [rising, partial curve].

Turning to `CS(=O)(=O)N1CCN(C(=O)Cc2cccs2)CC1`, the cell number change was -24.4%. Moreover, under setting [1], the AC50 is 5.8 µM [falling, full curve, poor fit].

With `Cc1ccc(NC(=O)CSCC(=O)NC2CCCCC2)cc1`, the cell number change came to 3.05%. In addition, the AC50 under setting [1] is 0.82 µM [falling, full curve, poor fit].

For the compound `CC(C)COC(=O)n1ccc(C(=O)N2CCCCC2)n1`, the cell number change is -3.6%. In addition, under setting [1], the AC50 is 16.4 µM [falling, single point].

In the case of `Cc1ccc(NC(=O)Nc2cccc(C(F)(F)F)c2)nc1`, the cell number change was -49.1%. Besides, under setting [2], the AC50 was 0.92 µM [falling, full curve]. Besides, under setting [1], the AC50 is 0.651 µM [falling, single point].

`CCOC(=O)c1c(-c2cccs2)csc1NC(=O)C(C)(C)C`: the cell number change is -49.8%. For the same compound, the half-maximal activity concentration (AC50) under setting [1] is 23.1 µM [falling, single point].

Regarding `Cc1cc(NC(=O)Cn2c(=O)c3c(ncn3CC(C)C)n(Cc3ccccc3)c2=O)no1`, the cell number change is -1.47%.

On to `O=C1CN(C(=O)CSc2nc(-c3ccc(Cl)cc3)cs2)c2ccccc2N1`, for which the cell number change was 34.4%. Moreover, the half-maximal activity concentration (AC50) under setting [2] was 6.51 µM [rising, single point]. For the same compound, under setting [1], the AC50 is 9.2 µM [rising, partial curve].

With `COc1ccc(NC(=O)CN(C)C(=O)c2cnc(Cl)c(Cl)c2)cc1`, the cell number change is -1.28%.

As for `Cc1cc(C)c2c(=O)[nH]n(C(C)C)c2n1`, the cell number change was -18.6%. For the same compound, the half-maximal activity concentration (AC50) under setting [1] was 2.59 µM [falling, full curve].

With `CC(NC(=O)C1CCCN(C(=O)c2ccc(Cl)cc2)C1)c1cccc(C(F)(F)F)c1` (stereo not drawn), the cell number change was -9.64%. Besides, the concentration at half-maximal activity (AC50) under setting [1] was 2.59 µM [rising, single point].

For the compound `O=C(CSc1ccsc1[N+](=O)[O-])NCc1ccco1`, the AC50 under setting [1] is 6.51 µM [falling, single point].

Turning to `COc1ccccc1NC(=O)c1cnc(SC)nc1`, the cell number change worked out at 7.04%. Further, under setting [1], the AC50 was 29.1 µM [rising, single point].

As for `Clc1ccc(/C=C\c2nccc3c2[nH]c2ccccc23)cc1`, the cell number change is -34.3%. The AC50 under setting [2] was 20.6 µM [falling, single point]. Moreover, the AC50 under setting [1] is 29.1 µM [falling, single point].
